Assay results as given in the supplement of paper PMC12819154, “High-throughput peptide-centric local stability assay extends protein–ligand identification to membrane proteins, tissues and bacteria” (Nature Structural & Molecular Biology, 2025).
The other results are listed elsewhere or left out. Most entries show no effect beyond the scatter of the controls.

The chains behind the UniProt entries cited, without tags or fusion partners. Where a name states a change or a piece, a line headed by the entry shows the natural chain unless it says otherwise.
UniProt Q9R020: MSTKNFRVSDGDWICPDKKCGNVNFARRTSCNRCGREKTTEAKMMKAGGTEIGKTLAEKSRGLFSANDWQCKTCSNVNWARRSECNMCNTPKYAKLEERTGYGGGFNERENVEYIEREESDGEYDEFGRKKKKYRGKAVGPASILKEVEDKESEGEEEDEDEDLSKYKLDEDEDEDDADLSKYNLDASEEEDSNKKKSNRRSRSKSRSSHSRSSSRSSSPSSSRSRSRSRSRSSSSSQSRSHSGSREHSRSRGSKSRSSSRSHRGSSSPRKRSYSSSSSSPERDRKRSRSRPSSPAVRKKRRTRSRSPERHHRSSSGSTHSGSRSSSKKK
UniProt Q9R0I7: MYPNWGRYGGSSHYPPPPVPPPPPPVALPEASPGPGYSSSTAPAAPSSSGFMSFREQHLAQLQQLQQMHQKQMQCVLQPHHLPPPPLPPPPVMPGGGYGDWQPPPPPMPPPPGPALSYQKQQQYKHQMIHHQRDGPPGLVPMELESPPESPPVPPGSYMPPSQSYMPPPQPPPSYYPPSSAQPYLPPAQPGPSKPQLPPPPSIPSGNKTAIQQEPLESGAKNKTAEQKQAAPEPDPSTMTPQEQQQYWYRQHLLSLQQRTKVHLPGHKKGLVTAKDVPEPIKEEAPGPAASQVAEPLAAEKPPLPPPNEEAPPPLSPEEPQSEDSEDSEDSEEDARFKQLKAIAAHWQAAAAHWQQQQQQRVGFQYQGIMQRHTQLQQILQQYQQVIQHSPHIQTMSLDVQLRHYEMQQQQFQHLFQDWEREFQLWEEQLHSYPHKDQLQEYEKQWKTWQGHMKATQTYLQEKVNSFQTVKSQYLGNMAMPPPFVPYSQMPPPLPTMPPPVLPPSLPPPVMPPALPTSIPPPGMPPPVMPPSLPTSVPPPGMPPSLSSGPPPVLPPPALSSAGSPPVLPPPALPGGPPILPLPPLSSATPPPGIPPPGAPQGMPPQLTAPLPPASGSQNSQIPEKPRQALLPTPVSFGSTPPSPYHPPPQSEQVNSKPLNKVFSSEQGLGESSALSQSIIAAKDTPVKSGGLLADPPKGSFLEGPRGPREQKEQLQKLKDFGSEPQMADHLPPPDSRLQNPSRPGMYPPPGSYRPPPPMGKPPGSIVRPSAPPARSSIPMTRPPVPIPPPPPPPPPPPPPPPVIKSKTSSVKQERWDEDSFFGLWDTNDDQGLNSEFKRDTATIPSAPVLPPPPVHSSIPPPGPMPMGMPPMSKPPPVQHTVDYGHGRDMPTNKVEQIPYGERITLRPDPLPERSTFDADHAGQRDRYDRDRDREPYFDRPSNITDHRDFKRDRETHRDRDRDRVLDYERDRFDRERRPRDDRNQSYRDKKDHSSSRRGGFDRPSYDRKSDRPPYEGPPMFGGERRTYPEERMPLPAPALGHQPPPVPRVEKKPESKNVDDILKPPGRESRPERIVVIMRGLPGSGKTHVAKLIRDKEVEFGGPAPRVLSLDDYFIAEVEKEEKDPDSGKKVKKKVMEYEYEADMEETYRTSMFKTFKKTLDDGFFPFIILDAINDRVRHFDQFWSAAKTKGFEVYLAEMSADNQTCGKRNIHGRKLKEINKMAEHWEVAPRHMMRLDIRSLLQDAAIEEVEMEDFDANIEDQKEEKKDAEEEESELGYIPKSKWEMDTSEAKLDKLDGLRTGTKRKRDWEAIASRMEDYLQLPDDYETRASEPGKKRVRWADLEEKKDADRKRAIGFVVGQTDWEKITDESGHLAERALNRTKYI
UniProt Q9QZQ1: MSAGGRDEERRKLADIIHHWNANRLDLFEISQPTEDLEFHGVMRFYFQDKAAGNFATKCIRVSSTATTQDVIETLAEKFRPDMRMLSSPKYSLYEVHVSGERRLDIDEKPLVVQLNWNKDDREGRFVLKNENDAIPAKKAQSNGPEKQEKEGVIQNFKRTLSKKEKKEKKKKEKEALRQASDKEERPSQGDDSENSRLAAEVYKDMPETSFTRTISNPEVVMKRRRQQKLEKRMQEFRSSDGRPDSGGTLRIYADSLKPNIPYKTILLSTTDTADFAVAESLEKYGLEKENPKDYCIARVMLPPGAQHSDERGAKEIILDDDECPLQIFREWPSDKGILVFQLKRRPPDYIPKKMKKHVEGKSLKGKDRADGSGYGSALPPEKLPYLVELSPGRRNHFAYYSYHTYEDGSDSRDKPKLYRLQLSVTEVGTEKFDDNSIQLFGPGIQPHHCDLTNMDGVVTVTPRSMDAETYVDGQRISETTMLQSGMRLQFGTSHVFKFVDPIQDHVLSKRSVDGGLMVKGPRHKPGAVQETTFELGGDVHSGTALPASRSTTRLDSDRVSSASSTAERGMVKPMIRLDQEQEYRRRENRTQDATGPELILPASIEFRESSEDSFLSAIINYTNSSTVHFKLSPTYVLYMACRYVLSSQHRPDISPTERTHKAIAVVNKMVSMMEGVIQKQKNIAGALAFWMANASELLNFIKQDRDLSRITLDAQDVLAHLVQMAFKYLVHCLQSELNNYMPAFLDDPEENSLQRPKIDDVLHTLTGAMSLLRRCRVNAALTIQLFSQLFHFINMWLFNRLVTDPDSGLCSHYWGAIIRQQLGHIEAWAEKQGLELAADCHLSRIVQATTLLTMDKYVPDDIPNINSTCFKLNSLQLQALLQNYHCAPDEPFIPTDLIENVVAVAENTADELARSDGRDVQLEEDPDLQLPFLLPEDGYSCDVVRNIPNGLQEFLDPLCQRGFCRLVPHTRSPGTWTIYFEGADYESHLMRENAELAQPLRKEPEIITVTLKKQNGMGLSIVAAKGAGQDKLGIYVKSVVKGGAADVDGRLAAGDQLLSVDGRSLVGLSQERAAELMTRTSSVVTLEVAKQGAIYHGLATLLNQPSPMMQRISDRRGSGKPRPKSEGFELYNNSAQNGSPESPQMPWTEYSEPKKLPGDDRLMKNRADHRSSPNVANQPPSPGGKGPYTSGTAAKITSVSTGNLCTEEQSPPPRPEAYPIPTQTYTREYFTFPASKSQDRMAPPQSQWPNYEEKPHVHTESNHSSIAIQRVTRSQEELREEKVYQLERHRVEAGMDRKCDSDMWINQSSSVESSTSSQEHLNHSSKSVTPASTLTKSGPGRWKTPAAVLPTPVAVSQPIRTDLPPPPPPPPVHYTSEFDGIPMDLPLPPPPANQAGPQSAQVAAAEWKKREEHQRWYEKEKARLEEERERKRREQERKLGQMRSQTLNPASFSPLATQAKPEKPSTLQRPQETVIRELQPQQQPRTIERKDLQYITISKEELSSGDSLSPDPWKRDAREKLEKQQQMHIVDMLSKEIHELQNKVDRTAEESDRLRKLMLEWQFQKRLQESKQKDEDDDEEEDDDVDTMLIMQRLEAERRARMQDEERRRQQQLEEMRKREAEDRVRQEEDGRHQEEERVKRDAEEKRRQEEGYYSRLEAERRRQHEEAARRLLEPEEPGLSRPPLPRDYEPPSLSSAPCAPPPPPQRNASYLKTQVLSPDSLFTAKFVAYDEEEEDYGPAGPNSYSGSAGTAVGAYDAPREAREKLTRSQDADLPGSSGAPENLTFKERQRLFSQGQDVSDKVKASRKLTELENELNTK
UniProt Q9QYI4: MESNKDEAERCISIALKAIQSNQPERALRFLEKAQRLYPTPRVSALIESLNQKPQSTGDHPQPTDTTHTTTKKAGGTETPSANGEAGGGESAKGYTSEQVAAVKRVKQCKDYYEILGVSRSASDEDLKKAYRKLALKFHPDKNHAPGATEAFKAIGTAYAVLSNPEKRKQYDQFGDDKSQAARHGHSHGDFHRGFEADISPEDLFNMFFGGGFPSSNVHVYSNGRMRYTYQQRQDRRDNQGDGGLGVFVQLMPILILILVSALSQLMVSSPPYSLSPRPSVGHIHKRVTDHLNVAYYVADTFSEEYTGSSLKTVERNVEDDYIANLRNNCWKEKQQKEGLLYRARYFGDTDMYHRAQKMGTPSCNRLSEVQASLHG
UniProt Q9WTZ2: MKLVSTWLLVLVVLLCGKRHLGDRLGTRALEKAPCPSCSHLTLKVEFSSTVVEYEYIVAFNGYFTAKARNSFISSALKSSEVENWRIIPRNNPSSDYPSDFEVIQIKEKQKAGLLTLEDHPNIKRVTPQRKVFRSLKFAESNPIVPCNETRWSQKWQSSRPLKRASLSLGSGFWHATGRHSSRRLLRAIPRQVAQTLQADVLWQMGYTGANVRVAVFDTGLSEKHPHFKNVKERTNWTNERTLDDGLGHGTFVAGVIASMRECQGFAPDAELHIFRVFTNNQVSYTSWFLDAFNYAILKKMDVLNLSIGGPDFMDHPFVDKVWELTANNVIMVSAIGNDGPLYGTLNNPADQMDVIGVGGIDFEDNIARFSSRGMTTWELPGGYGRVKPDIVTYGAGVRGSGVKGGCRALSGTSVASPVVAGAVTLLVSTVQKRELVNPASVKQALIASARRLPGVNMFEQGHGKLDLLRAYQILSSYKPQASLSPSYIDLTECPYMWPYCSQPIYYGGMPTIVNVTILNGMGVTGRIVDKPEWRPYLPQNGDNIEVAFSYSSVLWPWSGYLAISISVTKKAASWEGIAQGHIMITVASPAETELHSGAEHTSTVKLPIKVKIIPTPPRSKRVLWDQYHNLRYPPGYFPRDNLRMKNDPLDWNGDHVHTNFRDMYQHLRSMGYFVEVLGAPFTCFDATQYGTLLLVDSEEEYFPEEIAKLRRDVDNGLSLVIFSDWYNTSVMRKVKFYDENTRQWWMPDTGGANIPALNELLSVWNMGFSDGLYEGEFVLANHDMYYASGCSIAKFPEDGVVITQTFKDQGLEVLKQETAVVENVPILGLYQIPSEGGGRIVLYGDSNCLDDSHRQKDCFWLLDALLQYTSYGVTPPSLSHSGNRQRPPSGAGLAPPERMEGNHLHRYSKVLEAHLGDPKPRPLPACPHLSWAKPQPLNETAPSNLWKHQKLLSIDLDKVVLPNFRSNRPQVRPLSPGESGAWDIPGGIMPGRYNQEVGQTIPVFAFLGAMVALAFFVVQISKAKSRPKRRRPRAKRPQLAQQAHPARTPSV
UniProt Q9QYL7: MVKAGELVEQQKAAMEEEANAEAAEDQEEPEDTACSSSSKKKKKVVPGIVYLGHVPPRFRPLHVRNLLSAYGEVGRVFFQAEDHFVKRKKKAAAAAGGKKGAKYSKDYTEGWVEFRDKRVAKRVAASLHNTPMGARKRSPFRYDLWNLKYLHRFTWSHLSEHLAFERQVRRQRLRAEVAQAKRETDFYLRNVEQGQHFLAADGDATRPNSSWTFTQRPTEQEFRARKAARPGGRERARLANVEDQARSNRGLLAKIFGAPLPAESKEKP
UniProt Q9WTX6, whole entry: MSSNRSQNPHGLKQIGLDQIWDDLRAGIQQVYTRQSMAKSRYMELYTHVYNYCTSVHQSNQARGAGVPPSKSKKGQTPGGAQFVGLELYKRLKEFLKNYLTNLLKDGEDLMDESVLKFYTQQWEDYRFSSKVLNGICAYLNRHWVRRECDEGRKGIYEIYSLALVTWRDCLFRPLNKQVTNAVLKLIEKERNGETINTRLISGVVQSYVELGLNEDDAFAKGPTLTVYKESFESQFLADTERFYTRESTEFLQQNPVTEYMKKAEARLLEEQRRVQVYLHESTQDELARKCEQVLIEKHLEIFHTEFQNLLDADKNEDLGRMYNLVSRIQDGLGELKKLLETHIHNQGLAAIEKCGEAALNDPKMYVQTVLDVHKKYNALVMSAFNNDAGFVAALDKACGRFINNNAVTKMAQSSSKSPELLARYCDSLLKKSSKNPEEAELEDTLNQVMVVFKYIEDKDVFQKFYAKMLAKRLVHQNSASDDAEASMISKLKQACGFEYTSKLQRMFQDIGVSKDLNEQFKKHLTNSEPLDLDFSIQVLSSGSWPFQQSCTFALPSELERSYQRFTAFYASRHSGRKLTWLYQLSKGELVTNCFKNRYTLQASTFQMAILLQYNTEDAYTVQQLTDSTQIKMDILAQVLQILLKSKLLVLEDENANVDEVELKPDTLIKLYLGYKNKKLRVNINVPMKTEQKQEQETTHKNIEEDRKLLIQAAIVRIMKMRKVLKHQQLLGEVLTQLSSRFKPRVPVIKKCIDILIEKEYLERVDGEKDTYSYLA
UniProt Q9R123: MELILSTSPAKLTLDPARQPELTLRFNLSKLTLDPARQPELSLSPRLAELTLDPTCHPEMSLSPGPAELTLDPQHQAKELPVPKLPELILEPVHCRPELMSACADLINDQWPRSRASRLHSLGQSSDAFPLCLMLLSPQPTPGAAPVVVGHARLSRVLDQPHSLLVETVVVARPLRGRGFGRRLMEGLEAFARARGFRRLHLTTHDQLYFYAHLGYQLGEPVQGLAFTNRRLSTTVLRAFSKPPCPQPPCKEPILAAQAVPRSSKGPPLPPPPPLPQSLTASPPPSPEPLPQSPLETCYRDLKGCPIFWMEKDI
UniProt Q9WV96: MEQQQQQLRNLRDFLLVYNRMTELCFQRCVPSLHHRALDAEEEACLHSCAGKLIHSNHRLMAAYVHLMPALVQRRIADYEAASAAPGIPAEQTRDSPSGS
UniProt Q9R0Q7: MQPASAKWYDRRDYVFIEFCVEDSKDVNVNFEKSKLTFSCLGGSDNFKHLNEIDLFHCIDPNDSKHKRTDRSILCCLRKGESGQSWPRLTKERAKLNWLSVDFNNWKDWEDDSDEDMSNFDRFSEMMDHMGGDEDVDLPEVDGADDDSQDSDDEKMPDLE

compound: CN[C@@H]1C[C@H]2O[C@@](C)([C@@H]1OC)n1c3ccccc3c3c4c(c5c6ccccc6n2c5c31)C(=O)NC4 [staurosporine]; test: log2 fold change of tryptic peptide abundance, ligand vs vehicle (limited proteolysis) (log2 ratio); higher = more trypsin-susceptible (destabilized); details: ligand concentration: 20 uM; sample: mouse liver crude lysate; replicate design: treated separately

**Q.** “UniProt Q9R013 (peptide sequence: IAAWLAQK, peptide start residue: 368)” was tested. Which log2 fold change did it give?
**A.** Its log2 fold change is -0.0865.

**Q.** “UniProt Q9QXD6 (peptide sequence: STDEPSEKDALQPGR, peptide start residue: 144)” was tested. Which log2 fold change did it give?
**A.** The log2 fold change was 0.32.

**Q.** For “UniProt Q9R0H2 (peptide sequence: TISHESGEHSAQGK, peptide start residue: 245)”, which log2 fold change is on record?
**A.** Its log2 fold change is -0.185.

**Q.** With “UniProt Q9R020 (peptide sequence: VSDGDWICPDKKCGNVNFAR, peptide start residue: 8)” as the target, how does the log2 fold change read?
**A.** Its log2 fold change is -0.35.

**Q.** Which log2 fold change does the source give for “UniProt Q9QZN4 (peptide sequence: TLPEETVVIGRR, peptide start residue: 261)” here?
**A.** The log2 fold change was 0.0769.

**Q.** How did the log2 fold change turn out when “UniProt Q9R0I7 (peptide sequence: SGGLLADPPKGSFLEGPR, peptide start residue: 689)” was run?
**A.** The log2 fold change was -0.266.

**Q.** Which log2 fold change does the source give for “UniProt Q9QZQ1 (peptide sequence: LTELENELNTK, peptide start residue: 1810)” here?
**A.** The log2 fold change was -0.406.

**Q.** How did the log2 fold change turn out when “UniProt Q9QXY6 (peptide sequence: VYIGSFWSHPLLIPDNRK, peptide start residue: 252)” was run?
**A.** The log2 fold change was 0.215.

**Q.** With “UniProt Q9WUK4 (peptide sequence: TTSILCLAR, peptide start residue: 78)” as the target, how does the log2 fold change read?
**A.** Its log2 fold change is 0.137.

**Q.** For “UniProt Q9QYI4 (peptide sequence: FHPDKNHAPGATEAFK, peptide start residue: 138)”, which log2 fold change is on record?
**A.** Its log2 fold change is 0.187.

**Q.** “UniProt Q9WV66 (peptide sequence: GTSLNDSYHSR, peptide start residue: 30)” was tested. Which log2 fold change did it give?
**A.** The log2 fold change was -0.175.

**Q.** Which log2 fold change does the source give for “UniProt Q9QXD8 (peptide sequence: VDKGAGNNPEFEETR, peptide start residue: 31)” here?
**A.** The log2 fold change was 0.267.

**Q.** How did the log2 fold change turn out when “UniProt Q9WTZ2 (peptide sequence: RPQLAQQAHPAR, peptide start residue: 1037)” was run?
**A.** Its log2 fold change is -0.187.

**Q.** With “UniProt Q9QXG9 (peptide sequence: LGPHQPASLEHPEHLAGHR, peptide start residue: 226)” as the target, how does the log2 fold change read?
**A.** The log2 fold change was -0.407.

**Q.** With “UniProt Q9QYL7 (peptide sequence: VKAGELVEQQK, peptide start residue: 2)” as the target, how does the log2 fold change read?
**A.** The log2 fold change was -0.23.

**Q.** How did the log2 fold change turn out when “UniProt Q9R210 (peptide sequence: IKELGMLIPK, peptide start residue: 254)” was run?
**A.** The log2 fold change was 0.423.

**Q.** How did the log2 fold change turn out when “UniProt Q9WU81 (peptide sequence: ESNVDIAASSSK, peptide start residue: 266)” was run?
**A.** The log2 fold change was -0.232.

**Q.** How did the log2 fold change turn out when “UniProt Q9QXN0 (peptide sequence: EGHVPGAAHSEGSQIMTATPPQTSAK, peptide start residue: 1571)” was run?
**A.** The log2 fold change was -1.05.

**Q.** With “UniProt Q9R0H0 (peptide sequence: DVTLGSVLGR, peptide start residue: 614)” as the target, how does the log2 fold change read?
**A.** Its log2 fold change is -0.319.

**Q.** For “UniProt Q9WTX6 (peptide sequence: CGEAALNDPK, peptide start residue: 355)”, which log2 fold change is on record?
**A.** Its log2 fold change is -0.871.

**Q.** Which log2 fold change does the source give for “UniProt Q9R123 (peptide sequence: DLKGCPIFWMEKDI, peptide start residue: 301)” here?
**A.** Its log2 fold change is -0.787.

**Q.** For “UniProt Q9WUM3 (peptide sequence: NVLSDSRPASYSR, peptide start residue: 410)”, which log2 fold change is on record?
**A.** Its log2 fold change is -0.0704.

**Q.** How did the log2 fold change turn out when “UniProt Q9QXS6 (peptide sequence: LKEQSIFGDQRDEEEESQMK, peptide start residue: 251)” was run?
**A.** Its log2 fold change is -0.515.

**Q.** With “UniProt Q9R1P0 (peptide sequence: LSAEKVEIATLTR, peptide start residue: 206)” as the target, how does the log2 fold change read?
**A.** The log2 fold change was -0.185.

**Q.** With “UniProt Q9WV96 (peptide sequence: LMAAYVHLMPALVQR, peptide start residue: 60)” as the target, how does the log2 fold change read?
**A.** The log2 fold change was 0.153.

**Q.** For “UniProt Q9WV03 (peptide sequence: QREQMEQMK, peptide start residue: 24)”, which log2 fold change is on record?
**A.** The log2 fold change was 0.971.

**Q.** With “UniProt Q9R0Q7 (peptide sequence: KGESGQSWPRLTK, peptide start residue: 79)” as the target, how does the log2 fold change read?
**A.** The log2 fold change was -0.368.

**Q.** “UniProt Q9QZD4 (peptide sequence: LYSQCLAMSR, peptide start residue: 742)” was tested. Which log2 fold change did it give?
**A.** The log2 fold change was 0.4.

**Q.** How did the log2 fold change turn out when “UniProt Q9QY66 (peptide sequence: LLEELDHAANR, peptide start residue: 139)” was run?
**A.** Its log2 fold change is 0.317.

**Q.** Which log2 fold change does the source give for “UniProt Q9R022 (peptide sequence: TSMHWAVR, peptide start residue: 99)” here?
**A.** The log2 fold change was 0.324.
